Drawing on PubChem BioAssay, this text covers SMN2 luciferase ratio and SMN1 luciferase ratio for 17 compounds.

Structures are written as SMILES. Several values for one entry are separate records, joined by “and”; a condition that tells them apart may be missing. Identical values can stand only once. Some of the results follow. These are further read-outs of the screen, such as a control signal, another cell line or another target. No call is given for them. Compounds called inactive in the main read-out are mostly missing here.

This assay can be described thus: enhancers of SMN2 over SMN1 splicing, cell-based, SMN2/SMN1 luciferase reporters (AID 1598). The settings on record: SMN2 vs SMN1 luciferase splicing reporter cells, at 10 µM; SMN1 luciferase ratio: measured here: SMN1 luciferase reporter average; SMN2 luciferase ratio: measured here: SMN2 luciferase reporter average, stronger effect = higher value.
For `CC(=O)Oc1ccc2c(c1)CCC1C2CC[C@@]2(C)C1CC[C@@H]2OC(C)=O` (some centres undefined), the SMN2 luciferase ratio was 0.88 and the SMN1 luciferase ratio was 0.93.

Turning to `O=C(O)c1cc(O)ccc1O`, the SMN2 luciferase ratio turned out to be 0.93 and the SMN1 luciferase ratio was 0.89.

For `CC(=O)OCC(=O)[C@@]12OC3(CCCC3)O[C@@H]1CC1C3CCC4=CC(=O)C=C[C@]4(C)[C@@]3(F)[C@@H](O)C[C@@]12C` (some centres undefined), the SMN2 luciferase ratio was found to be 0.9 and the SMN1 luciferase ratio was 1.04.

Consider `CC1(C)C2CC[C@]3(C)C(C(=O)C=C4[C@@H]5C[C@@](C)(C(=O)O)CC[C@]5(C)CC[C@]43C)[C@@]2(C)CC[C@@H]1O` (some centres undefined), for which the SMN2 luciferase ratio came out at 0.94 and the SMN1 luciferase ratio is 0.88.

Consider `O=C(O)c1cc(=O)c2cccc(O)c2[nH]1`, for which the SMN1 luciferase ratio came to 0.9 and the SMN2 luciferase ratio was found to be 0.89.

Turning to `Cc1cccc(N(C)C(=S)Oc2ccc3ccccc3c2)c1`, the SMN2 luciferase ratio turned out to be 0.89 and the SMN1 luciferase ratio is 0.87.

Take `O=C(O)CN(CCN(CC(=O)O)CC(=O)O)CC(=O)O`: the SMN1 luciferase ratio turned out to be 0.87 and the SMN2 luciferase ratio was found to be 0.9.

Regarding `CN(C)CCC(c1ccccc1)c1ccccn1` (centres undefined), the SMN1 luciferase ratio was determined as 0.88 and the SMN2 luciferase ratio came out at 0.89.

For the compound `Cc1nnc(NS(=O)(=O)c2ccc(N)cc2)s1`, the SMN2 luciferase ratio was 1 and the SMN1 luciferase ratio is 0.96.

Turning to `CCC(=O)c1ccc2c(c1)N(CC(C)N(C)C)c1ccccc1S2` (centres undefined), the SMN1 luciferase ratio worked out at 0.86 and the SMN2 luciferase ratio was found to be 1.

Turning to `CCN(CC)C(=O)c1cccc(C)c1`, the SMN1 luciferase ratio was 0.8 and the SMN2 luciferase ratio was 0.85.

Regarding `Cc1cc(C)nc(NS(=O)(=O)c2ccc(N)cc2)n1`, the SMN2 luciferase ratio was determined as 0.93 and the SMN1 luciferase ratio came to 0.86.

In the case of `NCCCC(=O)O`, the SMN2 luciferase ratio was 1.02 and the SMN1 luciferase ratio was found to be 0.92.

On to `NC(N)=NC(N)=Nc1ccccc1`, for which the SMN1 luciferase ratio is 0.86 and 0.92; the SMN2 luciferase ratio was 0.9 and 0.89.

Take `CN1C(=O)CC[C@H]1c1cccnc1`: the SMN2 luciferase ratio was determined as 1.05 and the SMN1 luciferase ratio was determined as 0.95.

In the case of `Nc1ncnc2c1ncn2C1O[C@H](COP(=O)(O)O)[C@@H](O)[C@H]1O` (some centres undefined), the SMN1 luciferase ratio turned out to be 0.9 and the SMN2 luciferase ratio turned out to be 1.

As to `c1ccc([C@H]2CN3CCSC3=N2)cc1`, the SMN2 luciferase ratio was 0.91 and the SMN1 luciferase ratio was 0.93.
